Measured values taken from US20220031700A1, “Treatment of Acute Respiratory Distress Syndrome (ARDS)” (priority 2020, published 2022).
For at least one compound, name, drawing or mass did not settle the structure.

How the values were obtained:
[1] = system: mouse model of cytokine storm; experiment: Evans Blue dye (EBD) assay of lung after intranasal LPS challenge; format: in vivo; conditions: Example 1; C57Bl/6J male mice, LPS 50 μg IN; MLR-1023 30 and 100 mg/kg IP QD 7 days, last dose 1 hr prior to LPS; dexamethasone 20 mg/kg PO 1 hr prior to LPS; compared to LPS/Vehicle group
[2] = system: mouse model of cytokine storm; experiment: Lung Wet/Dry ratio assay after intranasal LPS challenge; format: in vivo; conditions: Example 1; C57Bl/6J male mice, LPS 50 μg IN; MLR-1023 30 and 100 mg/kg IP QD 7 days, last dose 1 hr prior to LPS; dexamethasone 20 mg/kg PO 1 hr prior to LPS; compared to LPS/Vehicle group
Protocol: Intranasal administration of LPS: The LPS challenge was carried out according to Ma et al., Inflammation, 2019, 42, 1901-1912.
Compound dosing: Animals in groups 2-5 were dosed according to the Table 1 for 6 days. On day 7, 1 hour after the last dose, animals were intranasally treated with LPS. Dexamethasone (20 mg/kg PO) was administered 1 hour prior to LPS treatment. Six hours after the instillation of LPS, animals received an IV dose of EBD. Thirty minutes later, animals were sacrificed, and the lungs were collected as previously described.
Intranasal administration of LPS: The LPS challenge was carried out according to Ma et al. (2019).
Compound dosing: Animals in groups 2-5 were dosed according to the Table 2 for 6 days. Group 3 animals received 6 doses of MLR-1023 QD and a 7th dose 1 hour prior to LPS. Group 4 animals received 6 doses of MLR-1023 QD and Vehicle 1 hour prior to LPS. Group 5 animals received 6 Vehicle doses QD and 1 dose of MLR-1023 1 hour prior to LPS. On day 7, 1 hour after the last dose, animals were intranasally treated with LPS. Six hours after the instillation of LPS, animals received an IV dose of EBD. Thirty minutes later, animals were sacrificed, and the lungs were collected as previously described.

## C[C@@H]1C[C@H]2[C@@H]3CCC4=CC(=O)C=C[C@]4(C)[C@@]3(F)[C@@H](O)C[C@]2(C)[C@@]1(O)C(=O)CO [dexamethasone, reference compound]
[1]
  Evans Blue content in the lung: significant decrease
[2]
  wet/dry ratio of the lung: significant decrease
